Measurements reported in PubChem BioAssay AID1159584 (Peter MacCallum Cancer Centre, 2016).
Test: 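Genes whose loss is lethal only together with E-cadherin loss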 (primary screen). Cells: human MCF10A breast epithelial cells, parental and CDH1-null. Reagent: siRNA against human genes. Measured: 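ATP luminescence (CellTiter-Glo) viability per line relative to mean mock wells over all plates, and the ratio of CDH1-null to parental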. Direction: CDH1-null / parental viability ratio: higher = CDH1-null cells survive relatively better than parental.
The whole screen tested about 18,000 reagents; shown is a random part of them. Further read-outs or replicates are left out here. Not stated in the record: the amount of reagent, the time to read-out.

| gene symbol | CDH1-null / parental viability ratio |
| --- | --- |
| MYLK2 | 1.09 |
| TRIM62 | 0.98 |
| NFKBID | 0.91 |
| PTDSS1 | 0.89 |
| THNSL2 | 1.04 |
| SLC9A4 | 1.22 |
| SLC10A3 | 1.18 |
| AOX1 | 0.69 |
| VSIR | 1.19 |
| HES4 | 1.79 |
| SBF2 | 0.96 |
| HNRNPA1 | 1.07 |
| TEAD4 | 1.19 |
| TRIM43 | 0.98 |
| AGBL2 | 1.21 |
| C1orf21 | 0.96 |
| PTH2R | 1.4 |
| TRAPPC2 | 1.01 |
| MMRN2 | 1.03 |
| FBXO33 | 1 |
| TMEM174 | 0.85 |
| WT1 | 1.12 |
| TJP2 | 0.87 |
| ASAP1 | 1.18 |
| OPN3 | 1.33 |
| SGCE | 0.68 |
| MAGED1 | 0.82 |
| PIK3R2 | 1.02 |
| MAPK12 | 0.94 |
| SBNO2 | 1 |
| ABITRAM | 1.14 |
| GSTM5 | 1.01 |
| NPY2R | 1.09 |
| AFDN-DT | 0.98 |
| GOSR1 | 1.06 |
| TAFAZZIN | 1.05 |
| DBT | 0.95 |
| KIAA1217 | 1.43 |
| ZNF385A | 1.36 |
| HRCT1 | 1 |
| GC | 1.22 |
| CHD4 | 0.65 |
| KCTD7 | 1.2 |
| SULT1A3 | 0.98 |
| TIMM13 | 1.48 |
| CBLC | 1.03 |
